The list shows a part of the results.
tested on: T1, CTL2-GFP (C. trachomatis L2/434/Bu, GFP-expressing); parameters: species or system HeLa; Intracellular C. trachomatis growth in HeLa cells, bulk GFP fluorescence relative to DMSO; settings: bulk GFP, single well; 28.5 h, 10 µM; inhibitor
T1 construct: L2/434/Bu, GFP-expressing

Compound	% of control remaining
CCn1nc(-c2ccc(Cl)cc2)c2c(=O)n(C)c(=O)[nH]c21 [CBK287845]	107.005%
COc1ccc(CN2CCN(c3nccnc3OC3CCCCC3)CC2)cc1 [CBK082830T]	105.423%
CCN(CCCNC(=O)c1cc(-c2cccnc2)nc2ccccc12)c1cccc(C)c1 [CBK294465]	159.743%
O=c1cc(O)c2c(=O)[nH]c(=O)n(-c3ccccc3)c2[nH]1 [CBK287907]	127.297%
O=C(Nc1ccccc1)Nc1ccc([N+](=O)[O-])cc1 [CBK016975]	63.5484%
O=C1CN(C(=O)Nc2ccc(Cl)cc2)CCN1 [CBK155861]	129.985%
O=C(Nc1ccc(F)cc1)c1ccccc1NS(=O)(=O)c1ccc(Br)cc1 [CBK045438]	49.0267%
Cc1cccc(C(=O)Nc2nnc(-c3ccncc3)o2)c1 [CBK287430]	125.364%
Cc1cc(C[C@@H]2COC[C@H]2NCc2ccccc2C(F)(F)F)on1 [CBK285464]	146.667%
COc1cc(CN2CCNCC2)c2ccn(S(=O)(=O)c3ccccc3C#N)c2c1 [CBK144486T]	95.4748%
CS(=O)(=O)N1CC2(CCN(CC3COc4ccccc4O3)CC2)c2ccccc21 (stereo not drawn) [CBK115461T]	83.6378%
CCOC(=O)C1CCCN(C(=O)Cn2c(C)nc3ccccc3c2=O)C1 (stereo not drawn) [CBK306150]	122.392%
CCOc1ccc(S(=O)(=O)N2CCCN(Cc3ccc(F)cc3F)CC2)c2cccnc12 [CBK062757]	71.3177%
Cc1ccc(NC(=O)CSc2nnc(N)[nH]2)cc1 [CBK034301]	126.229%
COc1cc(OC)nc(N2CCN(c3nccnc3NS(=O)(=O)C3CC3)CC2)n1 [CBK048698]	112.435%
NS(=O)(=O)c1ccc(NC(=O)c2cc3c(n(-c4ccccc4)c2=O)CCCC3=O)cc1 [CBK266467]	143.477%
O=C(Nc1ccccc1)N1C[C@@H]2OCC(=O)N(Cc3ccc(F)cc3)[C@@H]2C1 [CBK289683]	154.628%
O=C(NCCc1c[nH]cn1)Nc1cccc(C(F)(F)F)c1 [CBK269822]	120.552%
Cc1nccn1CCN(C)C(=O)C1CC2C=CC1C21CC1 (stereo not drawn) [CBK282084]	97.1793%
CCn1c(C(O)c2ccc(OCc3ccccc3)cc2)nc2ccccc21 (stereo not drawn) [CBK263458]	100%
CC(C)c1ccc(C(C)NC(=O)Cn2cc(C(=O)NC3CCCCC3)ccc2=O)cc1 (stereo not drawn) [CBK286097]	113.543%

Part of the list above, in CSV form:
Compound,% of control remaining
O=C(Nc1ccccc1)N1C[C@@H]2OCC(=O)N(Cc3ccc(F)cc3)[C@@H]2C1 [CBK289683],154.628%
O=C(NCCc1c[nH]cn1)Nc1cccc(C(F)(F)F)c1 [CBK269822],120.552%

From PMC12040169 (PLOS Biology, 2025)
